In paper PMC3948843:
Results are given in words; binding and its absence hold for the method and conditions named. In cells and extracts the contact can be indirect. Some binding calls cover weakened binding; strength is not graded here.

By UniProt entry, the sequences of proteins in these tests, tags left out.
UniProt P11275: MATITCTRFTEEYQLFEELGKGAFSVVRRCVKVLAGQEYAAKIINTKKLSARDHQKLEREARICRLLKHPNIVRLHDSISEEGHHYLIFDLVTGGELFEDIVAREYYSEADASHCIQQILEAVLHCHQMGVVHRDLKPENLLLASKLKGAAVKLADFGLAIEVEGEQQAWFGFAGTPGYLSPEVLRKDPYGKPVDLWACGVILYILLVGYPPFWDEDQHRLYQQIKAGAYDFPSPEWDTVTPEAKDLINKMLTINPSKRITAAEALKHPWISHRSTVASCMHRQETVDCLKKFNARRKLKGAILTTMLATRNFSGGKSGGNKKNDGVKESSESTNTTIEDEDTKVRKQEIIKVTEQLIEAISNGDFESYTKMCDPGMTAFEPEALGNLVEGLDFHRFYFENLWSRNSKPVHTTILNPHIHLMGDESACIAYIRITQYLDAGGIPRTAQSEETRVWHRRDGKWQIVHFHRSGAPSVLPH

Molecular target: T1, CYLD (endogenous, PSD fraction) (rat (endogenous in cerebral cortex PSD fraction)) (UniProt Q66H62)
T1 sequence: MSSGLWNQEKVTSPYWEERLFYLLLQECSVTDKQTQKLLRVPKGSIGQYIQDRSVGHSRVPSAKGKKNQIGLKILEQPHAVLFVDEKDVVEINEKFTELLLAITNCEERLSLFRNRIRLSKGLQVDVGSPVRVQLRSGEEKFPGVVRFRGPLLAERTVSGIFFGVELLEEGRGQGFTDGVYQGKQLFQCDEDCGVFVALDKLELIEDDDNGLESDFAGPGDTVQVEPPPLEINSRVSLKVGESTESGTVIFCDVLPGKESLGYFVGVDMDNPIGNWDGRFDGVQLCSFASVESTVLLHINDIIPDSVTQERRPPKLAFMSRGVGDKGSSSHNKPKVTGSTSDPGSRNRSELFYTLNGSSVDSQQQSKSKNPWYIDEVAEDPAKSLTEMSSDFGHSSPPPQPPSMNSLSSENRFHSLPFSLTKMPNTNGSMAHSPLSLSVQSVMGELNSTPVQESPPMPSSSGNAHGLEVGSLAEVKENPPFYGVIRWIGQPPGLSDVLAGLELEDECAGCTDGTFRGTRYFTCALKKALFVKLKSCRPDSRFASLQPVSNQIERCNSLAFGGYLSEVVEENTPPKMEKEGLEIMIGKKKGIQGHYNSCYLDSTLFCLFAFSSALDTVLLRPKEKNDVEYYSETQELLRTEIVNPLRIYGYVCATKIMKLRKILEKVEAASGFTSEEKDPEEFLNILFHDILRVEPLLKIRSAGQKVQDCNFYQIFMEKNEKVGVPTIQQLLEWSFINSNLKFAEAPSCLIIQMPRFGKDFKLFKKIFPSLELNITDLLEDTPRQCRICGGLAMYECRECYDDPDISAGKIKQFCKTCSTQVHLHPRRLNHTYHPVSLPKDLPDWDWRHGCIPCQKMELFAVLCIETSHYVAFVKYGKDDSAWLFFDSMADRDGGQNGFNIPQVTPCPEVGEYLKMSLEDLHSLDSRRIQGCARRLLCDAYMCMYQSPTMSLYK
Assay: co-IP; rat cerebral cortex PSD fraction solubilized in 1% SDS, diluted to 0.5% TX-100; CYLD mouse monoclonal antibody (E-4) and protein-A agarose beads; washed with 1% TX-100 in PBS; Western blot for CYLD and alphaCaMKII; non-phosphorylating conditions

binding: binds
Substance: CaMKII (PSD-associated, detected with an antibody to alphaCaMKII) (from UniProt P11275 1-478) (enzyme)
